The source of these data is publication PMC10319587.

The chains behind the UniProt entries cited, without tags or fusion partners.
UniProt Q09472: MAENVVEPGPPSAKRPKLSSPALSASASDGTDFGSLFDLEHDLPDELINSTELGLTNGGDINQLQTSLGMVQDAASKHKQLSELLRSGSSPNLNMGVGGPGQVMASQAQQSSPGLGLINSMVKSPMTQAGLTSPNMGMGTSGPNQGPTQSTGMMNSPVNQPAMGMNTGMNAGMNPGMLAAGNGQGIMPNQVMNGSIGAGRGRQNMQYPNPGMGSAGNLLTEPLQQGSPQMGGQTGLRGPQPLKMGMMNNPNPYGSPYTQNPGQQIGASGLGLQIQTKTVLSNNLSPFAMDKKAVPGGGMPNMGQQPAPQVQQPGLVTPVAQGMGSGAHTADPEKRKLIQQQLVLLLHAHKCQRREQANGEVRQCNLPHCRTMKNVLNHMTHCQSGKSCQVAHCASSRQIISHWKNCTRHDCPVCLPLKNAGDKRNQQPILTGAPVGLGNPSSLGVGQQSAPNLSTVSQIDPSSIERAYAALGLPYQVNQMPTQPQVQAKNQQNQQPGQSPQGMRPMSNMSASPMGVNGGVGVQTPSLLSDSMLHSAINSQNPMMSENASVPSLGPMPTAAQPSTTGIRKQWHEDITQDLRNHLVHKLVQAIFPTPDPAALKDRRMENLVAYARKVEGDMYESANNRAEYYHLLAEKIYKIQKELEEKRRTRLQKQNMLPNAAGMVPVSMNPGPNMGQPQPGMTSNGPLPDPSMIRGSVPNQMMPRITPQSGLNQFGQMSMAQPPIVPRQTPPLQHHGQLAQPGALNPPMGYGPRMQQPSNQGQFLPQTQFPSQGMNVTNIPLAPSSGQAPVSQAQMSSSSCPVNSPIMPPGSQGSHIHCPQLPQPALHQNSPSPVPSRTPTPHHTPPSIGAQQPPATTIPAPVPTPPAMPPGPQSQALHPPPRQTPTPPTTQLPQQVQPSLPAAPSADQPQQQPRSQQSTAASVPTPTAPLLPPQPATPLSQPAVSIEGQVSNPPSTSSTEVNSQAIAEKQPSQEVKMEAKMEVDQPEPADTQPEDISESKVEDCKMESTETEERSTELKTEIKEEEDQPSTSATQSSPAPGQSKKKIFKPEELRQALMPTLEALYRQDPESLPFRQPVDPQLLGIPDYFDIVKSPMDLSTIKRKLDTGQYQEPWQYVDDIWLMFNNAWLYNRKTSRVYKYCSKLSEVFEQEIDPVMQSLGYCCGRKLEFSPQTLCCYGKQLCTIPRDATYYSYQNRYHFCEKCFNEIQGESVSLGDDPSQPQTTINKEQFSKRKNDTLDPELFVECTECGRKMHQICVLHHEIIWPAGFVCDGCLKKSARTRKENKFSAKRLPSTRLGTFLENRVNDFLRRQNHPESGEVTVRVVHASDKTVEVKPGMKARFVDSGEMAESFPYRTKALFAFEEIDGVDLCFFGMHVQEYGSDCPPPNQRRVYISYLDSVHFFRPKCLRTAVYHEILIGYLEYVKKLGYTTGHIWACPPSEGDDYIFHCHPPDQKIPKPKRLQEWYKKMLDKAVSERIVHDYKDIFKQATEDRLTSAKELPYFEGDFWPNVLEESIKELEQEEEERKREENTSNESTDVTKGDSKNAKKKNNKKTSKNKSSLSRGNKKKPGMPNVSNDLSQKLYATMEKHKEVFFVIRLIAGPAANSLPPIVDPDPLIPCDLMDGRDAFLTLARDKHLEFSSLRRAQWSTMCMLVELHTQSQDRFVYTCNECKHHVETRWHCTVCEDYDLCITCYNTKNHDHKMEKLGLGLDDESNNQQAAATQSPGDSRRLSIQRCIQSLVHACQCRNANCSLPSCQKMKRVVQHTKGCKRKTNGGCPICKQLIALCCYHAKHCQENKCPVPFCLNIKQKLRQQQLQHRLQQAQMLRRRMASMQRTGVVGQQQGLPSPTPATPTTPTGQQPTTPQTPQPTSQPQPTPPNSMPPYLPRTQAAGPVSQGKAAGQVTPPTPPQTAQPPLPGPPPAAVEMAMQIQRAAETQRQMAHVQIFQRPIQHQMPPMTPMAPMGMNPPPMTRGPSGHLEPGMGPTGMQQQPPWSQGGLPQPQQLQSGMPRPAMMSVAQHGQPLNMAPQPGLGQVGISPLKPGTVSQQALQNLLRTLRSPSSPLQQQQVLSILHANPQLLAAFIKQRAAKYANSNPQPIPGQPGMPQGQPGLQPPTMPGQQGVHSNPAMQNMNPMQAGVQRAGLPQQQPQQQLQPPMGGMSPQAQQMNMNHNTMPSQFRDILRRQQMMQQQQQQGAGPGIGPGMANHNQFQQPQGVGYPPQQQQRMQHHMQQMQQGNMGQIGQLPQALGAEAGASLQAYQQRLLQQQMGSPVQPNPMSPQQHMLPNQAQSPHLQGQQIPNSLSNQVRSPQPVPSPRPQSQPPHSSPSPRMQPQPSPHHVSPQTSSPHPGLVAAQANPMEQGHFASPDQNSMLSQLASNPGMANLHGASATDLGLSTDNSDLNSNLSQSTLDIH
UniProt Q15796: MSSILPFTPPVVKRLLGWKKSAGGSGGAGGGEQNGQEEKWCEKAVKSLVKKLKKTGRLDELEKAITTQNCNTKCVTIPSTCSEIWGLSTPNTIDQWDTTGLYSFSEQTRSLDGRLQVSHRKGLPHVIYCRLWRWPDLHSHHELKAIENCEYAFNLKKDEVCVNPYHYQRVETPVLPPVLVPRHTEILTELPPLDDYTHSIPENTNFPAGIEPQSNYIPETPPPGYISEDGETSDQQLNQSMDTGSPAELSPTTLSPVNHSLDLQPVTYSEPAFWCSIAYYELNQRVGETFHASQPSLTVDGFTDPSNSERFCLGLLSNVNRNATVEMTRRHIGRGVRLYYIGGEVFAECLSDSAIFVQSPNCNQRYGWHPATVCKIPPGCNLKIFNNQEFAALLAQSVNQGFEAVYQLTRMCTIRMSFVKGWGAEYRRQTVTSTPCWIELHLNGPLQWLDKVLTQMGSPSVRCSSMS

Results are given in words; binding and its absence hold for the method and conditions named. Binding seen in cells or lysates may run through a third protein. Some entries that bind do so weakly or less than the wild type.

Experiment [1] concerns the target p300 (human (endogenous in SGC-7901 and HGC-27)) (UniProt Q09472). In words: co-IP; lysates of SGC-7901 and HGC-27 cells immunoprecipitated with anti-SMAD2 or anti-p300 antibody overnight at 4°C on protein A/G magnetic beads; western blot with the respective other antibody (forward and reverse co-IP). For orientation: A western blot detects proteins with antibodies after separation by electrophoresis.

For experiment [2], the target named is SMAD2 (human (endogenous in SGC-7901 and HGC-27)) (UniProt Q15796). Described as above.

In the case of SMAD2 (from UniProt Q15796 1-467), in experiment [1], the binding entry was “binds”. p300 (from UniProt Q09472 1-2414): the binding result in experiment [2] is recorded as “binds”.
